Reference: the supplement of paper PMC10849652
Some of the results follow.

Sequences of proteins named here, by UniProt entry; tags and fusion partners are left off. A change or cut given only in a name is not applied to a line headed by its entry.
UniProt Q7Z2W4: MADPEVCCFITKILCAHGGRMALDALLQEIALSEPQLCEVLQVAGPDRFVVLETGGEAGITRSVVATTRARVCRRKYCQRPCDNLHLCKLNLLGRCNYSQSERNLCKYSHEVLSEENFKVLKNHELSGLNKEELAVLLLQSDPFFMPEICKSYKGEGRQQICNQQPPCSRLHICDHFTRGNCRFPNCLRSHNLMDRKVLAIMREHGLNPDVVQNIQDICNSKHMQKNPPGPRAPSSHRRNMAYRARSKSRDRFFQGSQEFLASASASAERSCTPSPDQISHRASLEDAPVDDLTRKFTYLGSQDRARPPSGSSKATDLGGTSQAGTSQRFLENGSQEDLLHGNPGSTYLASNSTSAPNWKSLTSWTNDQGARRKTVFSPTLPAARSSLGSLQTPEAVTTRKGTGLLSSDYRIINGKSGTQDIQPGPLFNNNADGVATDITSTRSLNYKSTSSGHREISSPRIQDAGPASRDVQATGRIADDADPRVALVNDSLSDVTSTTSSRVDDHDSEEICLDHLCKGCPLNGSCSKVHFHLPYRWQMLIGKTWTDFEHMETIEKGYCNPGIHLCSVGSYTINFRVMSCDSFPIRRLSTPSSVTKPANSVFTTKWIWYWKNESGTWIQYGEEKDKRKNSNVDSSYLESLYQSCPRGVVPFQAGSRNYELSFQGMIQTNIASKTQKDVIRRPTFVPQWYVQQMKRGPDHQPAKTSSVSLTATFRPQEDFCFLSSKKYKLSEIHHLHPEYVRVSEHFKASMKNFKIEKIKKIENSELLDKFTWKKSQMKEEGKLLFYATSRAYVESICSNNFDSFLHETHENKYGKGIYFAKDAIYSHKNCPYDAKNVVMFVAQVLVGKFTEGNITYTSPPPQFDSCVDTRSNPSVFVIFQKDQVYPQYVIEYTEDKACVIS
UniProt Q9P243: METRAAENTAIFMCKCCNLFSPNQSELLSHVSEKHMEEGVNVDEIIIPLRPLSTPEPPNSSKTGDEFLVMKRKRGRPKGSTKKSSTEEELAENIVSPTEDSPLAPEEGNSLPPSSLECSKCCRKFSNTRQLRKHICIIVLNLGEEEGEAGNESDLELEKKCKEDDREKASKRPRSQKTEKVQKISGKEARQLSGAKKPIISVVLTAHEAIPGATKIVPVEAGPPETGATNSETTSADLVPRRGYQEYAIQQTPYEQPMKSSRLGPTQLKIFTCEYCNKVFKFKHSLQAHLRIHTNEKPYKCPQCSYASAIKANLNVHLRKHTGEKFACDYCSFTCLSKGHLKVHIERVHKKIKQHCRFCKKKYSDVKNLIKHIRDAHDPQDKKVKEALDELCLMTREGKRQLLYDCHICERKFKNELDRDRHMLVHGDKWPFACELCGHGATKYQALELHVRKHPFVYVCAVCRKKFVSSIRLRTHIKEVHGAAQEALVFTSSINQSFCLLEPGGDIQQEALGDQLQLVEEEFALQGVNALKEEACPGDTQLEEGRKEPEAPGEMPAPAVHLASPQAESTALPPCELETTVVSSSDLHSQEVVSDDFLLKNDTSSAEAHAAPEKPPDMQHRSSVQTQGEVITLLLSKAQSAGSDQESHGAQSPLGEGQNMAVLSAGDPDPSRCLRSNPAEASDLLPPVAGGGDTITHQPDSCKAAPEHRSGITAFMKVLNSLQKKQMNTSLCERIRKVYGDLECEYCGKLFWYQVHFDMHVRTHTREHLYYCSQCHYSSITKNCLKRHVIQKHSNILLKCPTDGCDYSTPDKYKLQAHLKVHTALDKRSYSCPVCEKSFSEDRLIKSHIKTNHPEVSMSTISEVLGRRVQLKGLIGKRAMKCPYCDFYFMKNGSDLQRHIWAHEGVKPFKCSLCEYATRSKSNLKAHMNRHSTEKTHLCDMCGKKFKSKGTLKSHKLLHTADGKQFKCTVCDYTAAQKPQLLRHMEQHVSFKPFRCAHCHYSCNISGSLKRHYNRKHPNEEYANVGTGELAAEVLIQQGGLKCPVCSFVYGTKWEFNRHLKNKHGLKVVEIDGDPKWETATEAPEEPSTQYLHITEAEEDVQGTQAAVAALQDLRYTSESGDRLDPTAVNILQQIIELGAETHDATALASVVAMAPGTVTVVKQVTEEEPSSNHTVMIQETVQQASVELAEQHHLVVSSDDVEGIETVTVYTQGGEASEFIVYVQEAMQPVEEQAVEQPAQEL
UniProt Q96DA0: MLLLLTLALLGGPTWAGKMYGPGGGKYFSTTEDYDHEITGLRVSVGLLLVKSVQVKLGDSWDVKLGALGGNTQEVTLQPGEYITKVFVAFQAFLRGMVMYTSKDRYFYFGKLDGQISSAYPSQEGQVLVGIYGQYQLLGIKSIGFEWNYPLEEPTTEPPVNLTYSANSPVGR
UniProt P47974: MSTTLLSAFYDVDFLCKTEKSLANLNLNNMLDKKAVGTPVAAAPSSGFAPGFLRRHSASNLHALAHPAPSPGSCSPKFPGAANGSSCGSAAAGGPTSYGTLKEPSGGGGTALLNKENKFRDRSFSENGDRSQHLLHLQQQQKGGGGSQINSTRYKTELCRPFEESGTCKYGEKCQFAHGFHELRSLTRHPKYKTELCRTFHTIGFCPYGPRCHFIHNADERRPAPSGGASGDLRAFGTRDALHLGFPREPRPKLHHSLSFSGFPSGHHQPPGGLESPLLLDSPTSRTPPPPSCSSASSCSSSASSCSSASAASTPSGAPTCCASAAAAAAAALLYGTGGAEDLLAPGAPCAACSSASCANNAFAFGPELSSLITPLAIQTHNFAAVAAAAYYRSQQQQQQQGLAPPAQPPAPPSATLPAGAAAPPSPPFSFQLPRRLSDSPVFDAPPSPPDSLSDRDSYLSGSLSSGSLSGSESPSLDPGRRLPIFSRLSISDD
UniProt Q8N680: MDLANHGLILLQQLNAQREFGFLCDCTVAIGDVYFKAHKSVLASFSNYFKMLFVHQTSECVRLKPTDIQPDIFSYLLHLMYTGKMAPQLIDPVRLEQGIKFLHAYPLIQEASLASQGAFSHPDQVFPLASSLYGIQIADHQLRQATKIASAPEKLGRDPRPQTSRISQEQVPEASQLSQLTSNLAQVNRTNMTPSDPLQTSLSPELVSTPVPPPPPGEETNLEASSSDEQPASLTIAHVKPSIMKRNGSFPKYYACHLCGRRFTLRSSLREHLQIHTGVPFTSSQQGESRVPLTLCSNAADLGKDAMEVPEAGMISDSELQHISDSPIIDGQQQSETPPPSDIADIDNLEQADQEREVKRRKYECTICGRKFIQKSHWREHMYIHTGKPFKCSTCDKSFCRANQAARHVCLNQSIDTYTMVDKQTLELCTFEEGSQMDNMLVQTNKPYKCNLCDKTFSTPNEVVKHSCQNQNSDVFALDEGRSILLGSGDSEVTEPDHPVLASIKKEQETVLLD
UniProt Q96DT7: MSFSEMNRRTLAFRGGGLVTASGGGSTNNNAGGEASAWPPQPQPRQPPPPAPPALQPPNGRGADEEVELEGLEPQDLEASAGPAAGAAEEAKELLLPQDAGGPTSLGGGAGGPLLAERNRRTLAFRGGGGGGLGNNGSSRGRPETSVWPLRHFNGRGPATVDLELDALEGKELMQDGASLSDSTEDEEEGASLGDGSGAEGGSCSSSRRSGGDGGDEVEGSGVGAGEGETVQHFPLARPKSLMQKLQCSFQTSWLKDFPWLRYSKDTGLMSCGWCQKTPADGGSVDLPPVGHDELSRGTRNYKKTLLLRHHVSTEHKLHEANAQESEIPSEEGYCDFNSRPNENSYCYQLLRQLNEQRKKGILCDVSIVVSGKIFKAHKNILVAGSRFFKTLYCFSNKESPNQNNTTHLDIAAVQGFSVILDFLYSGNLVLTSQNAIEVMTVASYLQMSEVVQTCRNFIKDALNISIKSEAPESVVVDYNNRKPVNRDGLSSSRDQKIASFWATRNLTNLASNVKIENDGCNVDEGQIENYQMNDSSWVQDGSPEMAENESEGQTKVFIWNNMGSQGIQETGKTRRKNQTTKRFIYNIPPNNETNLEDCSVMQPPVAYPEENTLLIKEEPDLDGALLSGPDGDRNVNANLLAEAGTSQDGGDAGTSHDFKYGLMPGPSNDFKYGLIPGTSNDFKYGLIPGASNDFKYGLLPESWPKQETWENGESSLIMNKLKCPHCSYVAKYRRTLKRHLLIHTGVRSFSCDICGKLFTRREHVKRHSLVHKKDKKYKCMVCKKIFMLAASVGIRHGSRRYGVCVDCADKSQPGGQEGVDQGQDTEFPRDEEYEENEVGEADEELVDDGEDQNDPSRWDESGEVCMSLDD
UniProt Q9NPG8: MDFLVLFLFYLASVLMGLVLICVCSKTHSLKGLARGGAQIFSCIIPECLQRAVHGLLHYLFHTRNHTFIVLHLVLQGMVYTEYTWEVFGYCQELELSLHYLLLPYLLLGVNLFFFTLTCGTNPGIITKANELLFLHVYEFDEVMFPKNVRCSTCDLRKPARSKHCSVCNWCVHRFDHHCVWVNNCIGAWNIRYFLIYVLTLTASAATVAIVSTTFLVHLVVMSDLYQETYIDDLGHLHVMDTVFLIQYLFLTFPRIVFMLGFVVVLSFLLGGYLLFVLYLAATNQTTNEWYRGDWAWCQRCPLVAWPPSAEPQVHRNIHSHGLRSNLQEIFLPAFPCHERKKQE
UniProt O15060: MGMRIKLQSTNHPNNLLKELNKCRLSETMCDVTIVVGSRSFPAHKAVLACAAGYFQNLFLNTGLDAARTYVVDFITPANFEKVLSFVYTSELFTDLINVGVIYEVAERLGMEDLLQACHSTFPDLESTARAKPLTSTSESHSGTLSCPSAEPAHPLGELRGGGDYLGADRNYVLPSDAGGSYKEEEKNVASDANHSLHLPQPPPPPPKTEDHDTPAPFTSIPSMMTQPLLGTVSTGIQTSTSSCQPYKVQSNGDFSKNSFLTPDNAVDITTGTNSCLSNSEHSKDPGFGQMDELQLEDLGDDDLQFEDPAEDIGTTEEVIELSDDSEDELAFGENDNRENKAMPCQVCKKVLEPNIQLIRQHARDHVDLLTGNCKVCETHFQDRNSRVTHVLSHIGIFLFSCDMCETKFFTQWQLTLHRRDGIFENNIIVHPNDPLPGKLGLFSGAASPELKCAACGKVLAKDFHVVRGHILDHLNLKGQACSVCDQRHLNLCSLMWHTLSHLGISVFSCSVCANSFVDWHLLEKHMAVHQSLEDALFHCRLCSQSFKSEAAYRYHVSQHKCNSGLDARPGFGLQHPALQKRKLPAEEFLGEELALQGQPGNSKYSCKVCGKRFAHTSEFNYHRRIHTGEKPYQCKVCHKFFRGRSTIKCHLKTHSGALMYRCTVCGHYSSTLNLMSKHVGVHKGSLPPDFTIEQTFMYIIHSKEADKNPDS
UniProt Q8IWR0: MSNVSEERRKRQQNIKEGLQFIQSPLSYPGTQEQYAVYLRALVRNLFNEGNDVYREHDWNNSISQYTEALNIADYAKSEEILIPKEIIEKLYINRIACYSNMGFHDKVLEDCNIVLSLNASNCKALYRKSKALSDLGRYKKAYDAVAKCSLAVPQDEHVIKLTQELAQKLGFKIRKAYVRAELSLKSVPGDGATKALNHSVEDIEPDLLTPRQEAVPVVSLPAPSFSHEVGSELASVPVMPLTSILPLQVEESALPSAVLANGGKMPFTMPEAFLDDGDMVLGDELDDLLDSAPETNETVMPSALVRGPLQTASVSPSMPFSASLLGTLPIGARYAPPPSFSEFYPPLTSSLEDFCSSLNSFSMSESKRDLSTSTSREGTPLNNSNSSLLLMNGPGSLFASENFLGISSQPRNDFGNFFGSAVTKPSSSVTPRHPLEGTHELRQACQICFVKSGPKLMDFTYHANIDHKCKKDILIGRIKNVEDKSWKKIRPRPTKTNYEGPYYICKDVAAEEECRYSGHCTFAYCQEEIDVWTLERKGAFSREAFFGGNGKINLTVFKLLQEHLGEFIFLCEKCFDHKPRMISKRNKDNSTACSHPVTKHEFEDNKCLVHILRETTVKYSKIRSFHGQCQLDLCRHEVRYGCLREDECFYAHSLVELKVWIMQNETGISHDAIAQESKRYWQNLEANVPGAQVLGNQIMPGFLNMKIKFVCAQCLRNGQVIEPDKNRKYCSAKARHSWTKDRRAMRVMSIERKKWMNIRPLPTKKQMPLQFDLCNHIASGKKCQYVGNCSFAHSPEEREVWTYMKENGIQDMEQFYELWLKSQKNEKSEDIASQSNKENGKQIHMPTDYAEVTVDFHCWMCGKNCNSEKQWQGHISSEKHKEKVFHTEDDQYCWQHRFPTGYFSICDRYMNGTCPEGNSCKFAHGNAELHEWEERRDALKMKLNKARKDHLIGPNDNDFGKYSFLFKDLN
UniProt O95619, whole entry, looked up: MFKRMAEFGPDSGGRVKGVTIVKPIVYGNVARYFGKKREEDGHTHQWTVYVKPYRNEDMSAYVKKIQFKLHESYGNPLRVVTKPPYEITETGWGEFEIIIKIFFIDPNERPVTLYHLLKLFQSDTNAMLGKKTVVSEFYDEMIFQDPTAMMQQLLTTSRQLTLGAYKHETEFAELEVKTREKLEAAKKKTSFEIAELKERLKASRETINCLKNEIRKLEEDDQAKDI

How the values were obtained:
Experiment in all cases: log2 fold change, soluble protein after heating vs DMSO (PISA); higher = thermal stabilisation; K562 lysate, 10 uM; active = over 0.2 and 3.5 SD of the protein, either way, in both replicates (recomputed)
[1] = compound: Cc1cn(-c2cc(NC(=O)c3ccc(C)c(Nc4nccc(-c5cccnc5)n4)c3)cc(C(F)(F)F)c2)cn1 [nilotinib]
Summary of the method: (§1)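 Thermal stability, expressed as log-two fold change relative to solvent controls, is given from duplicates. Crude K562 extract in PBS pH 7.4 with 1 mM MgCl2, at 1 mg/mL protein, was treated with 10 μM compound for 30 min and heated in aliquots for 3 min across 48°C-58°C. After pooling, adjustment to 0.5% NP-40 at 4°C and centrifugation at 21,000xg for 90 min, supernatant protein was measured by TMTpro 16plex LC-MS/MS with channel sums equalised.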

[2] = compound: Cc1nc(Nc2n[nH]c3c2CN(C(=O)N[C@H](CN(C)C)c2ccccc2)C3(C)C)c2sccc2n1
Summary of the method: as §1

[3] = compound: Cc1nc(Nc2ncc(C(=O)Nc3c(C)cccc3Cl)s2)cc(N2CCN(CCO)CC2)n1 [dasatinib]
Summary of the method: as §1

[4] = compound: Cc1ncc(-c2ccnc(Nc3ccc(S(C)(=O)=O)cc3)n2)n1C(C)C
Summary of the method: as §1

[5] = compound: Cn1cc(-c2ccc3c(c2)CCN3C(=O)Cc2cccc(C(F)(F)F)c2)c2c(N)ncnc21
Summary of the method: as §1

[6] = compound: Cn1cc(CNCC2CCN(c3ncc(C(=O)NO)cn3)CC2)c2ccccc21 [quisinostat]
Summary of the method: as §1

[7] = compound: Cn1cncc1[C@@](N)(c1ccc(Cl)cc1)c1ccc2c(c1)c(-c1cccc(Cl)c1)cc(=O)n2C [tipifarnib]
Summary of the method: as §1

[8] = compound: NC(=O)Nc1cc(-c2cccc(F)c2)sc1C(=O)N[C@H]1CCCNC1
Summary of the method: as §1

[9] = compound: NC(=O)c1cnc(N[C@@H]2CCCC[C@@H]2N)nc1Nc1cccc(-n2nccn2)c1
Summary of the method: as §1

[10] = compound: NC1(c2ccc(-c3nc4ccn5c(=O)[nH]nc5c4cc3-c3ccccc3)cc2)CCC1
Summary of the method: as §1

[11] = compound: O=C(CCCCCCC(=O)Nc1ccccc1)NO [vorinostat]
Summary of the method: as §1

[12] = compound: O=C(O)c1ccc2c(c1)nc(Nc1cccc(Cl)c1)c1ccncc12 [silmitasertib]
Summary of the method: as §1

[13] = compound: O=C1NC(=O)C(c2cnc3ccccn23)=C1c1cn2c3c(cc(F)cc13)CN(C(=O)N1CCCCC1)CC2
Summary of the method: as §1

[14] = compound: NCC(=O)Nc1ccc(-n2nc(C(F)(F)F)cc2-c2ccc3c(ccc4ccccc43)c2)cc1
Summary of the method: as §1

[15] = compound: c1cn2cc(-c3ccc4cn[nH]c4c3)nc(Nc3ccc(N4CCOCC4)cc3)c2n1 [entospletinib]
Summary of the method: as §1

Measured: log2 fold change

ZCRB1 (UniProt Q8TBF4)
inactive: [1] -0.139 | [2] -0.061 | [3] 0.052 | [4] 0.127 | [5] 0.004 | [6] -0.024 | [7] 0.185 | [8] 0.05 | [9] 0.01 | [10] -0.065 | [11] 0.193 | [12] 0.063 | [13] -0.002

ZC3HAV1 (UniProt Q7Z2W4)
inactive: [1] -0.013 | [2] 0.024 | [3] -0.023 | [4] 0.028 | [5] 0.056 | [6] -0.003 | [7] -0.025 | [8] 0.043 | [9] -0.008 | [10] 0.014 | [14] 0.009 | [11] -0.111 | [12] 0.039 | [13] 0.018 | [15] 0.017

ZFAT (UniProt Q9P243)
inactive: [1] -0.11 | [2] 0.027 | [4] 0.18 | [7] 0.169 | [10] -0.134 | [11] 0.084 | [12] -0.086 | [15] -0.011

ZG16B (UniProt Q96DA0)
inactive: [1] -0.033 | [2] -0.211 | [4] -0.038 | [6] -0.02 | [7] -0.055 | [8] 0.124 | [9] -0.144 | [10] 1.73 | [11] 0.177 | [12] -0.213 | [13] 0.411 | [15] -0.129

YIF1A (UniProt O95070)
inactive: [3] 0.067 | [5] -0.045 | [6] -0.043 | [8] 0.086 | [9] 0.037 | [10] 0.014 | [14] 0.023 | [11] 0.133 | [12] 0.007 | [13] -0.031 | [15] 0.024

ZFP36L2 (UniProt P47974)
inactive: [1] -0.141 | [2] 0.011 | [3] -0.417 | [4] 0.05 | [5] 0.013 | [6] -0.306 | [7] 0.044 | [8] 0.02 | [14] 0.07 | [13] 0.094 | [15] 0.044

ZBTB2 (UniProt Q8N680)
inactive: [1] 0.02 | [2] 0.011 | [3] 0.062 | [4] -0.001 | [5] -0.027 | [6] 0.078 | [7] -0.012 | [8] -0.078 | [10] 0 | [14] 0.024 | [11] -0.033 | [12] -0.008 | [13] 0.054 | [15] 0.041

XRCC2 (UniProt O43543)
inactive: [1] 0.174 | [2] -0.213 | [3] -0.027 | [4] -0.148 | [5] -0.129 | [6] -0.058 | [7] 0.033 | [8] 0.073 | [13] 0.025

ZFHX4 isoform 5 (UniProt Q86UP3)
inactive: [1] 0.035 | [2] 0.048 | [4] 0.083 | [6] 0.081 | [7] -0.1 | [8] 0.004 | [9] 0.375 | [10] 0.115 | [11] -0.493 | [12] 0 | [13] 0.015

ZBTB10 (UniProt Q96DT7)
inactive: [3] 0.013 | [5] -0.017 | [6] -0.066 | [8] 0.034 | [9] 0.026 | [10] 0.005 | [14] -0.086 | [11] 0.027 | [12] -0.014 | [13] 0.008 | [15] 0.012

ZFYVE26 (UniProt Q68DK2)
inactive: [1] -0.009 | [2] -0.107 | [4] 0.163 | [6] -0.087 | [7] 0.107 | [8] 0.121 | [9] 0.114 | [10] -0.102 | [14] 0.07 | [11] -0.367 | [12] 0.015 | [13] 0.013

ZDHHC4 (UniProt Q9NPG8)
inactive: [1] -0.052 | [2] 0.144 | [3] 0.083 | [4] -0.032 | [5] 0.016 | [6] -0.042 | [7] 0.097 | [8] 0.042 | [9] 0.015 | [10] 0.122 | [11] -0.168 | [12] -0.18 | [13] 0.084

ZBTB39 (UniProt O15060)
inactive: [3] -0.004 | [5] 0.064

ZC3H7A (UniProt Q8IWR0)
inactive: [1] -0.019 | [2] 0.054 | [3] -0.028 | [4] -0.023 | [5] 0.078 | [6] -0.059 | [7] -0.032 | [8] 0.075 | [10] -0.009 | [14] 0.009 | [11] -0.164 | [12] 0.03 | [13] -0.043 | [15] 0.031

ZFYVE1 (UniProt Q9HBF4)
inactive: [1] 0.203 | [2] -0.055 | [3] 0.084 | [4] -0.191 | [5] -0.02 | [6] -0.256 | [7] 0.05 | [8] -0.002 | [9] -0.006 | [10] 0 | [11] 0.109 | [12] 0.017 | [13] -0.069

ZDHHC17 (UniProt Q8IUH5)
inactive: [1] -0.164 | [2] 0.039 | [3] -0.096 | [4] -0.115 | [5] -0.028 | [6] 0.045 | [7] 0.118 | [8] -0.118 | [9] -0.047 | [14] 0.065 | [13] -0.067 | [15] 0.009

Copied from the entries so far (two entries):
ZCRB1 (UniProt Q8TBF4)
inactive: [1] -0.139 | [2] -0.061 | [3] 0.052 | [4] 0.127 | [5] 0.004 | [6] -0.024 | [7] 0.185 | [8] 0.05 | [9] 0.01 | [10] -0.065 | [11] 0.193 | [12] 0.063 | [13] -0.002

ZC3HAV1 (UniProt Q7Z2W4)
inactive: [1] -0.013 | [2] 0.024 | [3] -0.023 | [4] 0.028 | [5] 0.056 | [6] -0.003 | [7] -0.025 | [8] 0.043 | [9] -0.008 | [10] 0.014 | [14] 0.009 | [11] -0.111 | [12] 0.039 | [13] 0.018 | [15] 0.017

Next entries.

XPO7 (UniProt Q9UIA9)
inactive: [1] 0.015 | [2] 0 | [3] -0.006 | [4] -0.012 | [5] 0.003 | [6] -0.019 | [7] -0.004 | [8] -0.004 | [9] 0.007 | [10] -0.01 | [14] 0.004 | [11] -0.167 | [12] 0.001 | [13] -0.019 | [15] 0.018

YEATS4 (UniProt O95619)
inactive: [1] 0.1 | [2] 0.154 | [3] 0.11 | [4] -0.196 | [5] 0.035 | [6] -0.038 | [7] 0.071 | [8] -0.011 | [9] 0.018 | [10] 0.044 | [14] 0.042 | [11] 0.057 | [12] -0.029 | [13] -0.046 | [15] -0.037

YWHAH (UniProt Q04917)
inactive: [1] 0.016 | [2] 0 | [3] 0.038 | [4] 0.058 | [5] 0.002 | [6] 0.15 | [7] 0.004 | [8] -0.024 | [9] 0.002 | [10] 0.013 | [14] -0.011 | [11] 0.066 | [12] 0.026 | [13] -0.017 | [15] 0.003
